One data set in a line: Reference Example curability test (effect of unreacted starting materials). As to conditions: 3 parts of 50% propylene carbonate solution per 100 parts UVR-6110; pencil hardness after 10 minutes of UV irradiation.
Turning to `F[P-](F)(F)(F)(F)F.c1ccc(Sc2ccc([S+](c3ccccc3)c3ccccc3)cc2)cc1` [compound 10, (4-phenylthiophenyl)diphenylsulfonium hexafluorophosphate], the “Cured film hardness after 10 min.” value is on record as 3B.

Still in this data set, the particulars now being: 3 parts of 50% propylene carbonate solution per 100 parts UVR-6110; time for pencil hardness of coating film to reach HB.
For `F[P-](F)(F)(F)(F)F.c1ccc(Sc2ccc([S+](c3ccccc3)c3ccccc3)cc2)cc1` [compound 1, (4-phenylthiophenyl)diphenylsulfonium hexafluorophosphate], the Curing time amounted to 170 s. Still for that read-out and setting: the figure for `F[P-](F)(F)(F)(F)F.c1ccc(Sc2ccc([S+](c3ccccc3)c3ccccc3)cc2)cc1` [compound 10, (4-phenylthiophenyl)diphenylsulfonium hexafluorophosphate] is greater than 600 s.

A further data set in a line: Curability test: curing rate test of UV-irradiated coating film. As to conditions: 1 part initiator solution (SbF6 salt, propylene carbonate) per 100 parts UVR-6110; time for pencil hardness of cured film to reach HB after UV irradiation.
As for “(4-phenylthiophenyl)diphenyl-sulfonium hexafluoroantimonate [Example 7]”, the Curing rate came to 175 s. For the compound “(4-phenylthiophenyl)diphenylsulfonium hexafluoroantimonate [Comparative Example 4, reference compound]”, the Curing rate stood at 240 s.

“(4-phenylthiophenyl)diphenylsulfonium hexafluoroantimonate [Comparative Example 5, reference compound]”: the Curing rate amounted to 165 s. With “(4-phenylthiophenyl)diphenylsulfonium hexafluoroantimonate [Example 6]”, the Curing rate came out at 170 s.

Consider “(4-phenylthiophenyl)diphenylsulfonium hexafluoroantimonate [Example 8]”, for which the Curing rate was found to be 165 s.

The data set is the same for the next values; noted with them: 5 parts initiator solution (PF6 salt, propylene carbonate) per 100 parts UVR-6110; time for pencil hardness of cured film to reach HB after UV irradiation.
For `F[P-](F)(F)(F)(F)F.c1ccc(Sc2ccc([S+](c3ccccc3)c3ccccc3)cc2)cc1` [Comparative Example 1, (4-phenylthiophenyl)diphenylsulfonium hexafluorophosphate, reference compound], the Curing rate came to 225 s.

Take `F[P-](F)(F)(F)(F)F.c1ccc(Sc2ccc([S+](c3ccccc3)c3ccccc3)cc2)cc1` [Comparative Example 3, (4-phenylthiophenyl)diphenylsulfonium hexafluorophosphate, reference compound]: the Curing rate turned out to be 430 s.

Turning to `F[P-](F)(F)(F)(F)F.c1ccc(Sc2ccc([S+](c3ccccc3)c3ccccc3)cc2)cc1` [Example 1, (4-phenylthiophenyl)diphenylsulfonium hexafluorophosphate], the Curing rate is 130 s. Same read-out and setting: the figure for `F[P-](F)(F)(F)(F)F.c1ccc(Sc2ccc([S+](c3ccccc3)c3ccccc3)cc2)cc1` [Example 2, (4-phenylthiophenyl)diphenylsulfonium hexafluorophosphate] is 135 s. On to `Cc1ccc([S+](c2ccc(C)cc2)c2ccc(Sc3ccccc3)cc2)cc1.F[P-](F)(F)(F)(F)F` [Example 3, (4-phenylthiophenyl)-4,4′-dimethyldiphenylsulfonium hexafluorophosphate], for which the Curing rate turned out to be 125 s. As for `F[P-](F)(F)(F)(F)F.O=C(c1ccccc1)c1ccc(Sc2ccc([S+](c3ccccc3)c3ccccc3)cc2)cc1` [Example 4, [4-(4-benzoylphenyl)thiophenyl]-diphenylsulfonium hexafluorophosphate], the Curing rate was 130 s. For `F[P-](F)(F)(F)(F)F.c1ccc(Sc2ccc([S+](c3ccccc3)c3ccccc3)cc2)cc1` [Example 5, (4-phenylthiophenyl)diphenylsulfonium hexafluorophosphonate], the Curing rate is 125 s.

The record behind these values is patent US7709548B2, “Method for manufacturing monosulfonium salt, cationic polymerization initiator, curable composition, and cured product” (San-Apro Limited, priority 2003, dated 2010).
